Values from PubChem BioAssay AID1224830 (NIAID, 2016)
Purpose: 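Genes whose knock-down alters the TNF-alpha reporter response to LPS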 (primary screen). Cells: human THP-1 monocytic leukaemia cells, TNF dual-luciferase reporter clone, PMA-differentiated to macrophage-like cells. Reagent: siRNA pool against human genes, 50 nM. Duration: LPS for 4 h, given about 3 days after siRNA transfection. Treatment: bacterial LPS (TLR4 ligand), 10 ng/ml. Detection: 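TNF firefly reporter luminescence divided by renilla, normalised to the plate median, then turned into a robust z-score for each replicate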. Scale: TNF reporter robust z-score: higher = stronger TNF reporter response to LPS. Active means: 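Each well counts as active if its z-score is over 2.8 or under -1.5; controls are left without a call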.
This is a random part of about 18,000 reagents tested. Of all reagents, about 2,900 (16%) are marked active. 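Calls are made per well; low scores hint the gene aids the LPS response, high scores that it dampens it.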 Repeated entries: four replicate wells of each siRNA pool.

gene | TNF reporter robust z-score | call
GAL3ST2 | 0.42 | inactive
GAL3ST2 | -0.61 | inactive
GAL3ST2 | 1.34 | inactive
GAL3ST2 | 1.54 | inactive
ATP8B3 | -1.1 | inactive
ATP8B3 | -1.09 | inactive
ATP8B3 | -1.37 | inactive
ATP8B3 | -1.24 | inactive
POLR2J | -1.56 | active
POLR2J | -1.23 | inactive
POLR2J | -1.91 | active
POLR2J | -1 | inactive
CHDH | 2.29 | inactive
CHDH | 0.87 | inactive
CHDH | -0.5 | inactive
CHDH | 1.15 | inactive
SLC18A3 | -0.17 | inactive
SLC18A3 | 0.14 | inactive
SLC18A3 | 0 | inactive
SLC18A3 | 0.99 | inactive
CAPRIN1 | -1.61 | active
CAPRIN1 | -1.59 | active
CAPRIN1 | -0.99 | inactive
CAPRIN1 | -1.23 | inactive
CCT8 | 0.39 | inactive
CCT8 | 0.28 | inactive
CCT8 | -0.94 | inactive
CCT8 | 0.4 | inactive
SSBP4 | -0.01 | inactive
SSBP4 | 0.27 | inactive
SSBP4 | -0.25 | inactive
SSBP4 | -0.77 | inactive
MPP4 | -0.02 | inactive
MPP4 | 0.54 | inactive
MPP4 | 0.48 | inactive
MPP4 | 0.63 | inactive
EGFR | -1.46 | inactive
EGFR | -0.94 | inactive
EGFR | -1.44 | inactive
EGFR | -1.43 | inactive
MELK | -0.11 | inactive
MELK | 0.14 | inactive
MELK | 0.96 | inactive
MELK | 1.56 | inactive
KLRK1 | -0.55 | inactive
KLRK1 | -0.47 | inactive
KLRK1 | -0.48 | inactive
KLRK1 | -0.02 | inactive
KY | -0.45 | inactive
KY | -1.03 | inactive
KY | -0.69 | inactive
KY | -0.95 | inactive
SEPTIN1 | 1.71 | inactive
SEPTIN1 | 0.17 | inactive
SEPTIN1 | 1.25 | inactive
SEPTIN1 | 0.48 | inactive
PIGH | 1.38 | inactive
PIGH | 2.81 | active
PIGH | 1.69 | inactive
PIGH | 3.98 | active
PPP1R9A | 0.7 | inactive
PPP1R9A | -0.07 | inactive
PPP1R9A | -0.74 | inactive
PPP1R9A | 1.44 | inactive
LUZP4 | -0.82 | inactive
LUZP4 | -0.1 | inactive
LUZP4 | -0.91 | inactive
LUZP4 | -0.61 | inactive
CSGALNACT2 | -0.27 | inactive
CSGALNACT2 | 0.19 | inactive
CSGALNACT2 | -1.01 | inactive
CSGALNACT2 | -0.06 | inactive
ARL1 | -0.21 | inactive
ARL1 | 0.92 | inactive
ARL1 | 1.29 | inactive
ARL1 | 1.1 | inactive
ELOA2 | -1.3 | inactive
ELOA2 | -1.06 | inactive
ELOA2 | -0.63 | inactive
ELOA2 | -0.67 | inactive
SLC20A2 | 2.84 | active
SLC20A2 | 2.96 | active
SLC20A2 | 2.26 | inactive
SLC20A2 | 3.77 | active
LRRC31 | 1.26 | inactive
LRRC31 | 1.35 | inactive
LRRC31 | 1.15 | inactive
LRRC31 | 1.63 | inactive
RBM18 | -1.04 | inactive
RBM18 | -0.14 | inactive
RBM18 | -1 | inactive
RBM18 | -1.55 | active
OR1J2 | -0.24 | inactive
OR1J2 | 0.12 | inactive
OR1J2 | -0.79 | inactive
OR1J2 | 0.85 | inactive
MSTO1 | 0.1 | inactive
MSTO1 | -0.18 | inactive
MSTO1 | -0.14 | inactive
MSTO1 | 0.98 | inactive
CASP14 | 0.98 | inactive
CASP14 | 0.5 | inactive
CASP14 | 0.81 | inactive
CASP14 | -0.39 | inactive
LVRN | 0.72 | inactive
LVRN | 0.12 | inactive
LVRN | 0.6 | inactive
LVRN | 0.05 | inactive
LVRN | -0.75 | inactive
LVRN | -0.71 | inactive
LVRN | -0.37 | inactive
LVRN | -0.13 | inactive
ABCC1 | 2.07 | inactive
ABCC1 | 0.68 | inactive
ABCC1 | 2.1 | inactive
ABCC1 | 3.54 | active
ANKRD35 | 1.19 | inactive
ANKRD35 | -0.72 | inactive
ANKRD35 | -1.09 | inactive
ANKRD35 | -0.76 | inactive
ANKRD35 | 3.67 | active
ANKRD35 | 1.5 | inactive
ANKRD35 | 2.21 | inactive
ANKRD35 | 1.26 | inactive
MT1A | -1.89 | active
MT1A | -0.94 | inactive
MT1A | -0.82 | inactive
MT1A | -0.87 | inactive
SLC38A11 | 1.26 | inactive
SLC38A11 | 0.65 | inactive
SLC38A11 | 1.88 | inactive
KLHL15 | -1.29 | inactive
KLHL15 | -1.24 | inactive
KLHL15 | -1.11 | inactive
KLHL15 | -1.55 | active
HHIP | -0.74 | inactive
HHIP | -0.22 | inactive
HHIP | 0.13 | inactive
HHIP | -0.23 | inactive
ID2 | -1.24 | inactive
ID2 | -0.74 | inactive
ID2 | -0.63 | inactive
ID2 | -0.53 | inactive

Reprinted from above (21 entries):
gene | TNF reporter robust z-score | call
POLR2J | -1.23 | inactive
POLR2J | -1.91 | active
POLR2J | -1 | inactive
CHDH | 2.29 | inactive
CHDH | 0.87 | inactive
CHDH | -0.5 | inactive
CHDH | 1.15 | inactive
SLC18A3 | -0.17 | inactive
SLC18A3 | 0.14 | inactive
SLC18A3 | 0 | inactive
SLC18A3 | 0.99 | inactive
CAPRIN1 | -1.61 | active
CAPRIN1 | -1.59 | active
CAPRIN1 | -0.99 | inactive
CAPRIN1 | -1.23 | inactive
CCT8 | 0.39 | inactive
CCT8 | 0.28 | inactive
CCT8 | -0.94 | inactive
CCT8 | 0.4 | inactive
SSBP4 | -0.01 | inactive
SSBP4 | 0.27 | inactive
